Results published in patent US7214696B2, “Compositions and methods for stabilizing transthyretin and inhibiting transthyretin misfolding” (The Scripps Research Institute, priority 2002, dated 2007).

Assay: Serum chemistry and side effects in healthy volunteers given diflunisal, Example 3
Assay type: in vivo, human
Settings: after diflunisal administration, all groups
Excerpt: Thirty healthy volunteers (25 male, 5 female) were enrolled after informed consent was given. The subjects ranged from 23 to 53 years of age (mean age, 37.6±8.8) with a mean body weight of 78.0±12.1 kg. […] This study design was approved by the Human Subjects Committee of Scripps Clinic, Scripps Green Hospital, The Scripps Research Institute, and The Scripps General Clinical Research Center.

O=C(O)c1cc(-c2ccc(F)cc2F)ccc1O [diflunisal]
serum level of RBP: decreased | serum level of TTR: increased | serum level of total T4: decreased
